Assay results reported in PubChem BioAssay AID504467 (National Center for Advancing Translational Sciences (NCATS), 2011).
Hit rate of the full screen: of about 330,000 compounds, about 7,700 (2.3%) were called active. This list was built around the results that the source calls inconclusive (neither active nor inactive); the mix of calls is not that of the screen. The call rests on the fitted dose curve; in most records, active means well fitted inhibition curve with a large enough effect; inconclusive means small, poorly fitted or top-dose-only effect, or effect the other way; inactive means flat fitted curve, though single readings scatter. Where the call is inconclusive, the potency comes from a doubtful curve fit.

Assay: qHTS screen for small molecules that inhibit ELG1-dependent DNA repair in human embryonic kidney (HEK293T) cells expressing luciferase-tagged ELG1; further: nearly all actives have a fitted effect of over 55% in size
Conditions: HEK293T ELG1-luciferase reporter, luminescence, 16 h, DNA damage induced by 5-fluorouridine; activity change, negative = inhibition: at 46.1 µM (top of the series)
In short: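 HEK293T cells expressing luciferase-tagged ELG1 (2,000/well) received 5-Fluorouridine plus compound or DMSO for 16 hr at 37 °C. Luciferase was read by ONE-Glo luminescence after 30 min at room temperature.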
On the % scale 0 is the no-effect control and ±100 the full control effect; potency means the concentration at half of the fitted maximal effect.

Row | Structure (SMILES) | activity change, negative = inhibition | Potency
1 | COc1ccc(C2/C=C\CN(C(=O)Nc3ccccc3)CC(=O)N2Cc2ccc(F)cc2)cc1 (centres undefined) | inactive: 14.1% | –
2 | COc1ccc(S(=O)(=O)N2CCCC(C(=O)N3CCCC3)C2)cc1OC (centres undefined) | inactive: 5.1% | –
3 | COc1cccc(-c2cc(C(=O)NCC3CCCO3)c3cc(C)cc(C)c3n2)c1 (centres undefined) | inactive: 11.7% | –
4 | CCCc1nn2c(=O)cc(CSCC(=O)Nc3nnc(CC)s3)nc2s1 | – | inconclusive: 8.2 µM [activator, partial curve, poor fit]
5 | CCc1ccc(C(=O)N2CCN(c3ccc(F)cc3)CC2)s1 | – | inconclusive: 29.1 µM [inhibitor, single point]
6 | COC(=O)Cn1c(CCS(=O)(=O)c2ccc(Cl)cc2)nc2ccccc21 | inactive: -12% | –
7 | CCn1c(=O)n(CC)c2cc(N3CCCC3)c(NC(=O)c3cccc(OC)c3)cc21 | – | inconclusive: 9.2 µM [inhibitor, partial curve, poor fit]
8 | CCCn1cc(S(=O)(=O)c2ccccc2)c(=O)c2cc(CC)ccc21 | inactive: 15.8% | –
9 | CCCCc1nc2cc(C(=O)N3CCCC(COC)C3)ccc2o1 (centres undefined) | – | inconclusive: 18.3 µM [activator, partial curve]
10 | O=C(O)c1sccc1OCc1ccccc1 | inactive: -13.4% | –
11 | Cc1ccc(NC(=O)c2ccccc2N2C(=O)C3C4C=CC(C5CC45)C3C2=O)cc1C (centres undefined) | inactive: 2.38% | –
12 | Cc1cc(C[n+]2cc(Br)ccc2N)c2ncccc2c1 | inactive: 0% | –
13 | Cc1ccc(SCc2cn3c(C)cc(C)nc3n2)cc1 | – | inconclusive: 20.6 µM [activator, partial curve]
14 | O=C(N1CCC(n2nc(-c3ccccc3)oc2=O)CC1)C1(c2ccc(Cl)cc2)CC1 | – | inconclusive: 29.1 µM [inhibitor, single point]
15 | Cc1nnc(SCc2nnc(-c3ccccc3Br)o2)n1-c1ccccc1 | inactive: 4.95% | –
16 | Cc1ccc(-c2nc3s/c(=C\c4ccco4)c(=O)n3n2)cc1 | – | inconclusive: 18.4 µM [activator, partial curve, poor fit]
17 | CC(=O)COC(=O)c1cc(-c2ccc(C)cc2)nc2ccccc12 | – | inconclusive: 14.6 µM [activator, single point]
18 | CCN1C(=O)/C(=C2/Sc3ccccc3N2CC)S/C1=N\c1ncn[nH]1 | – | inconclusive: 10.3 µM [inhibitor, partial curve]
19 | CCOC(=O)C1(Cc2ccc(Cl)cc2)CCN(C(=O)c2sc(C)nc2C)CC1 | – | inconclusive: 18.3 µM [inhibitor, partial curve]
20 | N#Cc1cccc(NC(=O)Cn2cnc(S(=O)(=O)N3CCOCC3)c2)c1 | inactive: -6.86% | –
21 | Cc1cccc(-n2c(O)c(C=Nc3ccc(O)cc3)c3ccccc3c2=O)n1 | – | inconclusive: 32.6 µM [inhibitor, single point]
22 | CC1CCN(c2ncnc3c2cnn3Cc2ccc(Cl)cc2)CC1 | – | inconclusive: 29.1 µM [inhibitor, single point]
23 | COc1ccccc1C1CCN(Cc2ccc(Cl)cc2Cl)CC1 | inactive: 4.01% | –
24 | Cc1cc(C(=O)OCC(=O)N2CCN(c3ccccc3)CC2)c2ccccc2n1 | – | inconclusive: 32.6 µM [inhibitor, single point]
25 | COc1ccc(COc2cccc3ccc(C)nc23)cc1F | inactive: 7.79% | –

A second format for 20 compounds above:
Row,Structure (SMILES),"activity change, negative = inhibition",Potency
3,COc1cccc(-c2cc(C(=O)NCC3CCCO3)c3cc(C)cc(C)c3n2)c1 (centres undefined),inactive: 11.7%,–
4,CCCc1nn2c(=O)cc(CSCC(=O)Nc3nnc(CC)s3)nc2s1,–,"inconclusive: 8.2 µM [activator, partial curve, poor fit]"
5,CCc1ccc(C(=O)N2CCN(c3ccc(F)cc3)CC2)s1,–,"inconclusive: 29.1 µM [inhibitor, single point]"
6,COC(=O)Cn1c(CCS(=O)(=O)c2ccc(Cl)cc2)nc2ccccc21,inactive: -12%,–
7,CCn1c(=O)n(CC)c2cc(N3CCCC3)c(NC(=O)c3cccc(OC)c3)cc21,–,"inconclusive: 9.2 µM [inhibitor, partial curve, poor fit]"
8,CCCn1cc(S(=O)(=O)c2ccccc2)c(=O)c2cc(CC)ccc21,inactive: 15.8%,–
9,CCCCc1nc2cc(C(=O)N3CCCC(COC)C3)ccc2o1 (centres undefined),–,"inconclusive: 18.3 µM [activator, partial curve]"
10,O=C(O)c1sccc1OCc1ccccc1,inactive: -13.4%,–
11,Cc1ccc(NC(=O)c2ccccc2N2C(=O)C3C4C=CC(C5CC45)C3C2=O)cc1C (centres undefined),inactive: 2.38%,–
12,Cc1cc(C[n+]2cc(Br)ccc2N)c2ncccc2c1,inactive: 0%,–
13,Cc1ccc(SCc2cn3c(C)cc(C)nc3n2)cc1,–,"inconclusive: 20.6 µM [activator, partial curve]"
14,O=C(N1CCC(n2nc(-c3ccccc3)oc2=O)CC1)C1(c2ccc(Cl)cc2)CC1,–,"inconclusive: 29.1 µM [inhibitor, single point]"
15,Cc1nnc(SCc2nnc(-c3ccccc3Br)o2)n1-c1ccccc1,inactive: 4.95%,–
16,Cc1ccc(-c2nc3s/c(=C\c4ccco4)c(=O)n3n2)cc1,–,"inconclusive: 18.4 µM [activator, partial curve, poor fit]"
17,CC(=O)COC(=O)c1cc(-c2ccc(C)cc2)nc2ccccc12,–,"inconclusive: 14.6 µM [activator, single point]"
18,CCN1C(=O)/C(=C2/Sc3ccccc3N2CC)S/C1=N\c1ncn[nH]1,–,"inconclusive: 10.3 µM [inhibitor, partial curve]"
19,CCOC(=O)C1(Cc2ccc(Cl)cc2)CCN(C(=O)c2sc(C)nc2C)CC1,–,"inconclusive: 18.3 µM [inhibitor, partial curve]"
20,N#Cc1cccc(NC(=O)Cn2cnc(S(=O)(=O)N3CCOCC3)c2)c1,inactive: -6.86%,–
21,Cc1cccc(-n2c(O)c(C=Nc3ccc(O)cc3)c3ccccc3c2=O)n1,–,"inconclusive: 32.6 µM [inhibitor, single point]"
22,CC1CCN(c2ncnc3c2cnn3Cc2ccc(Cl)cc2)CC1,–,"inconclusive: 29.1 µM [inhibitor, single point]"

(further entries)

Row | Structure (SMILES) | activity change, negative = inhibition | Potency
26 | O=C(CN1CCN(S(=O)(=O)c2ccc(F)cc2)CC1)Nc1ccnn1C1CCCC1 | inactive: -17.8% | –
27 | COCc1cc(CN2CCN(CCc3ccccc3)C(CCO)C2)ccc1OC (centres undefined) | inactive: -10% | –
28 | S=C(NCc1ccncc1)Nc1ccc(Br)cc1Cl | – | inconclusive: 10.3 µM [inhibitor, partial curve, poor fit]
29 | CN(Cc1nc(Cc2ccccc2F)no1)Cc1cccc2ncccc12 | – | inconclusive: 20.6 µM [inhibitor, partial curve, poor fit]
30 | COc1ccccc1NC(=O)NNC(=O)CN1C(=O)COc2ccccc21 | inactive: -3.31% | –
31 | O=C(OCC(=O)N1CCCc2ccccc21)c1c(F)cccc1F | – | inconclusive: 29.1 µM [activator, single point]
32 | Cc1nc2cc(-c3ccccc3)nn2c(C)c1CCC(=O)N1CCN(c2ccccc2)CC1 | – | inconclusive: 32.6 µM [activator, single point]
33 | CCOc1cccc(C(=O)Nc2cccc(-c3nnc(-c4ccccc4)o3)c2)c1 | – | active: 9.2 µM
34 | CN(Cc1ccc(C(C)(C)C)cc1)C(=O)C1CCN(C(=O)Nc2ccccc2)CC1 | – | inconclusive: 23.1 µM [inhibitor, single point]
35 | Cc1ccc(S(=O)(=O)N2C(=O)CCC2C(N)=O)cc1 (centres undefined) | inactive: -1.13% | –
36 | COc1cc2cc(C(=O)N3CCN(Cc4ccc5c(c4)OCO5)CC3)c(=O)oc2cc1OC | inactive: 4.56% | –
37 | Cc1ccc(NC(=S)Nc2ccc(S(=O)(=O)N3CCOCC3)cc2)cc1S(=O)(=O)N1CCOCC1 | – | inconclusive: 32.6 µM [inhibitor, partial curve, poor fit]
38 | Cc1cccnc1NC(=O)Cn1c(=O)oc2ccccc21 | – | inconclusive: 16.4 µM [inhibitor, single point]
39 | Cc1cccc(C)c1NC(=O)CN(C)C(=O)C1CCN(c2ncnc3sc(C)c(C)c23)CC1 | – | inconclusive: 25.9 µM [inhibitor, single point]
40 | Cc1cccc(/C(N)=N/OC(=O)Cc2cccs2)c1 | – | inconclusive: 18.4 µM [activator, partial curve]
41 | CCC(C)C(=O)Nc1cccc(SC)c1 (centres undefined) | – | inconclusive: 23.1 µM [activator, partial curve]
42 | CC(=O)c1c(C)[nH]c(C(=O)Nc2cccc(S(=O)(=O)N(C)c3ccccc3)c2)c1C | – | inconclusive: 29.1 µM [inhibitor, single point]
43 | O=C(NC(=S)N(Cc1ccccc1)c1ccccn1)C1CC1 | – | inconclusive: 20.6 µM [activator, single point]
44 | COc1ccc(NC(=O)CSc2nccn2-c2cccc(OC)c2)cc1 | inactive: -10.7% | –
45 | O=C(NCc1ccco1)Nc1ccccc1Cl | – | inconclusive: 12.6 µM [activator, partial curve]
46 | CCc1noc(C)c1C(=O)Nc1cc(Cl)ccc1N1CCCC1 | inactive: -9.38% | –
47 | CC1CC1C(=O)OCC(=O)Nc1ccc(Cl)cn1 (centres undefined) | – | inconclusive: 5.17 µM [activator, single point]
48 | CC(=O)Nc1ccc(S(=O)(=O)Nc2ccc(Cl)cn2)cc1 | inactive: 0% | –
49 | O=[N+]([O-])c1ccc2nc(CCCc3nc4ccc([N+](=O)[O-])cc4[nH]3)[nH]c2c1 | inactive: 11.6% | –
50 | COc1cc(C(=O)/C=C/Nc2ccc(NC(C)=O)cc2)cc(OC)c1OC | – | inconclusive: 29.1 µM [inhibitor, single point]

Row | Structure (SMILES) | activity change, negative = inhibition | Potency
51 | Cc1ccc(C(=O)N2CCN(c3ccc(NC(=O)c4cccnc4Cl)cc3)CC2)cc1 | – | inconclusive: 23.1 µM [inhibitor, single point]
52 | Cc1oc(-c2nc3ccccc3n2C)cc1C(=O)c1ccccc1 | – | inconclusive: 0.651 µM [activator, full curve]
53 | CC(=O)c1ccccc1NC(=O)COc1ccc(N(C)S(=O)(=O)c2ccc(C)c(C)c2)cc1 | – | inconclusive: 17.8 µM [inhibitor, single point]
54 | O=S(=O)(NC1CCN(S(=O)(=O)c2ccc3c(c2)OCCO3)C1)c1c(F)cccc1F (centres undefined) | – | inconclusive: 5.8 µM [activator, full curve, poor fit]
55 | CCC1Oc2ccccc2N(CC(=O)NCCN2C(C)CCCC2C)C1=O (centres undefined) | inactive: 14.5% | –
56 | CC(C)Oc1ccc(C(=O)Nc2ccccc2N2CCOCC2)cc1 | inactive: 10.6% | –
57 | C(=N/Nc1nc(-c2ccccc2)cc(-c2ccccc2)n1)/c1cccnc1 | – | inconclusive: 5.8 µM [inhibitor, full curve]
58 | CC(=O)CCn1cc([N+](=O)[O-])nc1C | inactive: -1.14% | –
59 | COc1ccc(-c2noc(N3CCC(C(=O)NCCCN4CCCCC4)CC3)n2)cc1 | – | inconclusive: 29.1 µM [activator, single point]
60 | COC(=O)[C@H](Cc1ccc(O)cc1)NC(=O)Cn1cnc2c(OCc3ccccc3)ncnc21 | inactive: -0.341% | –
61 | CN1CCN(c2ccc(-c3ccnn3C(=O)Nc3cccc(C(F)(F)F)c3)cc2)CC1 | – | inconclusive: 10.3 µM [activator, partial curve]
62 | COc1ccc(CN(CC(=O)NC2CCCC2)C(=O)c2ccc(-c3ccccc3)[nH]2)cc1 | – | inconclusive: 29.1 µM [inhibitor, single point]
63 | CCCCN(C(=S)Nc1cccc(C)c1C)c1c(N)n(CCC)c(=O)[nH]c1=O | inactive: 6.21% | –
64 | CCN(CC)C(=S)SC1=CCS(=O)(=O)C1 | – | inconclusive: 1.83 µM [activator, partial curve]
65 | CCN(C(=O)CSc1nc2ccccc2o1)C1CCS(=O)(=O)C1 (centres undefined) | – | inconclusive: 25.9 µM [activator, single point]
66 | Cc1cccc(NC(=O)c2cnc3sccn3c2=O)c1 | – | inconclusive: 2.31 µM [activator, full curve]
67 | COc1cccc(CNC(=O)c2cc(S(=O)(=O)N3CCCC3)cn2C)c1 | inactive: 5.16% | –
68 | CC(C)C(c1nnnn1CCc1ccccc1)N1CCSCC1 (centres undefined) | inactive: 13.1% | –
69 | COc1ccccc1CC(=O)Nc1ccc(-c2nnc(-c3ccco3)o2)cc1 | – | inconclusive: 29.1 µM [inhibitor, single point]
70 | COc1ccc(C2Nc3ccccc3C(=O)N2c2ccccc2)cc1CN1CCOCC1 (centres undefined) | – | inconclusive: 23.1 µM [activator, single point]
71 | O=C(CSCc1ccco1)NC1CCCC1 | – | inconclusive: 20.6 µM [activator, single point]
72 | COc1ccc(CN2CCNC(=O)C2CC(=O)NCCCC2CCCC2)c(F)c1 (centres undefined) | inactive: 8.29% | –
73 | CC(NC(=O)C1CCCN(C(=O)N(C)C)C1)c1ccccc1 (centres undefined) | inactive: 17.6% | –
74 | CCOC(=O)/C(C#N)=C/c1cn(CCOc2ccc(OC)cc2)c2ccccc12 | – | active: 11.6 µM
